# Measured values published in PubChem BioAssay AID330 (DTP/NCI, 2004).
# The list is a part of this screen's results and no random one: it is rich in T/C values a quarter to a half above the control, in often repeated tests (any T/C) and in doses without a T/C. Further doses and runs are listed elsewhere. T/C is the treated group as % of the vehicle group. Where survival is the endpoint, this PubChem deposit counts one and a half times the control or more as active, and values a quarter to a half above the control carry no call in these data; other NCI protocols may use other cut-offs. Schedules are NCI's codes, read here as Q, the interval in days (D) or hours (H), X, the number of doses. Some T/C values are followed by the survivors on the day toxicity was checked, most often the fifth; without a count, all were alive then. Some doses were run more than once; the values are given in rising order. Additions like (4×) give the number of equal values in this list.
# Test system: P388 leukemia ip, CD2F1 mice, survival T/C
# Assay: NCI In Vivo Anticancer Drug Screen. Data for tumor model P388 Leukemia (intraperitoneal) in CD2F1 (CDF1) mice
# Details: T/C endpoint: median survival time, higher T/C = longer survival
smiles,measurement,setting,value
COc1cccc2c1C(=O)c1c(O)c3c(c(O)c1C2=O)C[C@@](O)(C(=O)CO)C[C@@H]3OC1CC(N)C(O)C(C)O1 (stereo partly specified),T/C,"dose: 0.05 mg/kg/injection, schedule: Q01DX009 (ip), vehicle: water",128 % of control
same,T/C,"dose: 0.06 mg/kg/injection, schedule: Q01DX005 (ip), vehicle: water",129 % of control
same,T/C,"dose: 0.06 mg/kg/injection, schedule: Q01DX009 (ip), vehicle: saline",134 % of control
same,T/C,"dose: 0.06 mg/kg/injection, schedule: Q01DX009 (ip), vehicle: water","136, 140, 149 % of control"
same,T/C,"dose: 0.06 mg/kg/injection, schedule: Q04DX003 (ip), vehicle: saline",133 % of control
same,T/C,"dose: 0.1 mg/kg/injection, schedule: Q01DX009 (ip), vehicle: water",134 % of control
same,T/C,"dose: 0.1 mg/kg/injection, schedule: Q04DX003 (ip), vehicle: saline",126 % of control
same,T/C,"dose: 0.12 mg/kg/injection, schedule: Q01DX005 (ip), vehicle: water, evaluated on day 35",133 % of control
same,T/C,"dose: 0.12 mg/kg/injection, schedule: Q01DX005 (ip), vehicle: water, evaluated on day 60",141 % of control
same,T/C,"dose: 0.12 mg/kg/injection, schedule: Q01DX009 (ip), vehicle: water",143 and 146 % of control
same,T/C,"dose: 0.12 mg/kg/injection, schedule: Q04DX003 (ip), vehicle: saline","98 [5 of 6 alive], 103, 106, 115, 120 % of control"
same,T/C,"dose: 0.13 mg/kg/injection, schedule: Q01DX009 (ip), vehicle: saline",140 % of control
same,T/C,"dose: 0.13 mg/kg/injection, schedule: Q01DX009 (ip), vehicle: water",148 % of control
same,T/C,"dose: 0.14 mg/kg/injection, schedule: Q01DX009 (ip), vehicle: saline, evaluated on day 45",147 % of control
same,T/C,"dose: 0.14 mg/kg/injection, schedule: Q01DX009 (ip), vehicle: saline, evaluated on day 60",143 % of control
same,T/C,"dose: 0.14 mg/kg/injection, schedule: Q04DX003 (ip), vehicle: saline",133 % of control
same,T/C,"dose: 0.14 mg/kg/injection, schedule: Q04DX003 (ip), vehicle: water",137 % of control
same,T/C,"dose: 0.2 mg/kg/injection, schedule: Q01DX009 (ip), vehicle: water, evaluated on day 30","146 (2×), 150, 151, 152, 160 (2×), 161, 164, 165 (2×), 166 (2×), 169 % of control"
same,T/C,"dose: 0.2 mg/kg/injection, schedule: Q01DX009 (ip), vehicle: water, evaluated on day 45","146 (2×), 149, 152, 154 (3×), 155 (2×), 156, 159 (2×), 160, 161, 163, 165 (3×), 170, 172, 175 (2×), 192, 216 % of control"
same,T/C,"dose: 0.2 mg/kg/injection, schedule: Q04DX003 (ip), vehicle: saline",134 % of control
same,T/C,"dose: 0.2 mg/kg/injection, schedule: Q04DX003 (ip), vehicle: water",147 % of control
same,T/C,"dose: 0.23 mg/kg/injection, schedule: Q01DX009 (ip), vehicle: saline",137 % of control
same,T/C,"dose: 0.25 mg/kg/injection, schedule: Q01DX009 (ip), vehicle: saline, evaluated on day 5",154 and 203 % of control
same,T/C,"dose: 0.25 mg/kg/injection, schedule: Q01DX009 (ip), vehicle: saline, evaluated on day 30","100 [8 of 10 alive], 122, 182 % of control"
same,T/C,"dose: 0.25 mg/kg/injection, schedule: Q01DX009 (ip), vehicle: saline, evaluated on day 45","150, 153, 161 % of control"
same,T/C,"dose: 0.25 mg/kg/injection, schedule: Q01DX009 (ip), vehicle: saline, evaluated on day 60","118, 165, 175 % of control"
same,T/C,"dose: 0.25 mg/kg/injection, schedule: Q01DX009 (ip), vehicle: water, evaluated on day 5",152 % of control
same,T/C,"dose: 0.25 mg/kg/injection, schedule: Q01DX009 (ip), vehicle: water, evaluated on day 30","100 [5 of 6 alive], 103, 110, 136, 141, 146, 148, 149, 150, 152, 153, 155, 157 (2×), 160, 161 (2×), 162, 164, 166, 167, 169, 170, 171 (2×), 172 (2×), 176, 177, 178, 180 (2×), 207, 209 % of control"
same,T/C,"dose: 0.25 mg/kg/injection, schedule: Q01DX009 (ip), vehicle: water, evaluated on day 45","146, 149 (2×), 152 (2×), 153, 158, 159, 163, 166, 168 (2×), 171, 174, 175, 178 (3×), 181 (2×), 182 (2×), 184, 198, 209, 238 % of control"
same,T/C,"dose: 0.25 mg/kg/injection, schedule: Q01DX009 (ip), vehicle: water, evaluated on day 60",150 % of control
same,T/C,"dose: 0.25 mg/kg/injection, schedule: Q03HX008 (ip), vehicle: saline",126 % of control
same,T/C,"dose: 0.25 mg/kg/injection, schedule: Q04DX003 (ip), vehicle: saline","100, 108, 109, 118, 128 % of control"
same,T/C,"dose: 0.3 mg/kg/injection, schedule: Q04DX003 (ip), vehicle: saline",149 % of control
same,T/C,"dose: 0.39 mg/kg/injection, schedule: Q01DX009 (ip), vehicle: saline, evaluated on day 30",130 % of control [9 of 10 alive]
same,T/C,"dose: 0.39 mg/kg/injection, schedule: Q01DX009 (ip), vehicle: saline, evaluated on day 45",150 % of control
same,T/C,"dose: 0.39 mg/kg/injection, schedule: Q01DX009 (ip), vehicle: saline, evaluated on day 60",170 and 172 % of control
same,T/C,"dose: 0.39 mg/kg/injection, schedule: Q01DX009 (ip), vehicle: water, evaluated on day 30","159, 161, 164 (2×), 169, 172, 175 (2×), 184, 188, 192, 202 % of control"
same,T/C,"dose: 0.39 mg/kg/injection, schedule: Q01DX009 (ip), vehicle: water, evaluated on day 45","146, 154, 161, 163, 164, 168, 170 (2×), 171 (2×), 172, 176, 178, 181, 183, 187, 189 (2×), 191 (2×), 192, 195, 201, 205, 252 % of control"
same,T/C,"dose: 0.5 mg/kg/injection, schedule: Q01DX001 (ip), vehicle: saline, evaluated on day 5",140 % of control
same,T/C,"dose: 0.5 mg/kg/injection, schedule: Q01DX001 (ip), vehicle: saline, evaluated on day 7",135 % of control
same,T/C,"dose: 0.5 mg/kg/injection, schedule: Q01DX001 (ip), vehicle: saline, evaluated on day 45",114 % of control [7 of 8 alive on day 9]
same,T/C,"dose: 0.5 mg/kg/injection, schedule: Q01DX001 (ip), vehicle: saline, evaluated on day 60",115 % of control
same,T/C,"dose: 0.5 mg/kg/injection, schedule: Q01DX009 (ip), vehicle: saline, evaluated on day 5",155 and 192 % of control
same,T/C,"dose: 0.5 mg/kg/injection, schedule: Q01DX009 (ip), vehicle: saline, evaluated on day 30","115 [9 of 10 alive], 120, 166 % of control"
same,T/C,"dose: 0.5 mg/kg/injection, schedule: Q01DX009 (ip), vehicle: saline, evaluated on day 45","173, 178, 192 % of control [7 of 8 alive]"
same,T/C,"dose: 0.5 mg/kg/injection, schedule: Q01DX009 (ip), vehicle: saline, evaluated on day 60","118, 162, 187 % of control"
same,T/C,"dose: 0.5 mg/kg/injection, schedule: Q01DX009 (ip), vehicle: water, evaluated on day 5",180 % of control
same,T/C,"dose: 0.5 mg/kg/injection, schedule: Q01DX009 (ip), vehicle: water, evaluated on day 30","109 [5 of 6 alive], 115, 127, 137, 149 (2×), 156, 163 (2×), 163 [5 of 6 alive], 165, 166, 168, 171, 173 (2×), 175 (2×), 178 (2×), 182, 184, 186, 187, 188, 189, 190, 193, 195, 204, 206, 210, 217, 218, 223 % of control"
same,T/C,"dose: 0.5 mg/kg/injection, schedule: Q01DX009 (ip), vehicle: water, evaluated on day 45","142, 162, 169, 172, 173 (3×), 174, 178, 179, 183, 186 (2×), 188, 189, 192 (2×), 195, 198 (2×), 209 (2×), 213, 214, 219, 220 % of control"
same,T/C,"dose: 0.5 mg/kg/injection, schedule: Q01DX009 (ip), vehicle: water, evaluated on day 60",174 % of control
same,T/C,"dose: 0.5 mg/kg/injection, schedule: Q03HX008 (ip), vehicle: saline",135 % of control
